The assay addresses RapZ-CTD (C-terminal globular domain of RapZ), BACTH fusion (Escherichia coli). Nature of the assay: two-hybrid; bacterial adenylate cyclase-based two-hybrid (BACTH); T18 and T25 fusions from pUT18C and pKT25 derivatives in E. coli reporter strain RH785 (MG1655::cyaA derivative) or BTH101, also in a derivative lacking the endogenous qseEGF operon; grown at 28°C with 1 mM IPTG to stationary phase; read-out β-galactosidase activity.

Results are given in words; binding and its absence hold for the method and conditions named. A result given as binding can be weak or reduced; the word gives no strength. Sequences can lack the tags named with a protein.

B1: QseF, BACTH fusion (T18 or T25) (protein, UniProt P0AFU4 1-444)
chain: MSHKPAHLLLVDDDPGLLKLLGLRLTSEGYSVVTAESGAEGLRVLNREKVDLVISDLRMDEMDGMQLFAEIQKVQPGMPVIILTAHGSIPDAVAATQQGVFSFLTKPVDKDALYQAIDDALEQSAPATDERWREAIVTRSPLMLRLLEQARLVAQSDVSVLINGQSGTGKEIFAQAIHNASPRNSKPFIAINCGALPEQLLESELFGHARGAFTGAVSNREGLFQAAEGGTLFLDEIGDMPAPLQVKLLRVLQERKVRPLGSNRDIDINVRIISATHRDLPKAMARGEFREDLYYRLNVVSLKIPALAERTEDIPLLANHLLRQAAERHKPFVRAFSTDAMKRLMTASWPGNVRQLVNVIEQCVALTSSPVISDALVEQALEGENTALPTFVEARNQFELNYLRKLLQITKGNVTHAARMAGRNRTEFYKLLSRHELDANDFKE
In the case of B1, the binding result is given as “binds weakly”.

B2: QseE, BACTH fusion (T18 or T25) (protein, UniProt P52101 1-475)
chain: MKRWPVFPRSLRQLVMLAFLLILLPLLVLAWQAWQSLNALSDQAALVNRTTLIDARRSEAMTNAALEMERSYRQYCVLDDPTLAKVYQSQRKRYSEMLDAHAGVLPDDKLYQALRQDLHNLAQLQCNNSGPDAAAAARLEAFASANTEMVQATRTVVFSRGQQLQREIAERGQYFGWQSLVLFLVSLVMVLLFTRMIIGPVKNIERMINRLGEGRSLGNSVSFSGPSELRSVGQRILWLSERLSWLESQRHQFLRHLSHELKTPLASMREGTELLADQVVGPLTPEQKEVVSILDSSSRNLQKLIEQLLDYNRKQADSAVELENVELAPLVETVVSAHSLPARAKMMHTDVDLKATACLAEPMLLMSVLDNLYSNAVHYGAESGNICLRSSLHGARVYIDVINTGTPIPQEERAMIFEPFFQGSHQRKGAVKGSGLGLSIARDCIRRMQGELYLVDESGQDVCFRIELPSSKNTK
As to B2, the binding entry was “binds weakly”.
